Results are given in words; binding and its absence hold for the method and conditions named. For some of these results: Binding seen in cells or lysates may run through a third protein. Some results given as binding are weak or reduced against the parent protein; the word gives no strength. Tags and fused reporters may be left off the sequences shown.
T1: BON3-NLuc (Arabidopsis thaliana) (UniProt Q5XQC7)
T1 sequence: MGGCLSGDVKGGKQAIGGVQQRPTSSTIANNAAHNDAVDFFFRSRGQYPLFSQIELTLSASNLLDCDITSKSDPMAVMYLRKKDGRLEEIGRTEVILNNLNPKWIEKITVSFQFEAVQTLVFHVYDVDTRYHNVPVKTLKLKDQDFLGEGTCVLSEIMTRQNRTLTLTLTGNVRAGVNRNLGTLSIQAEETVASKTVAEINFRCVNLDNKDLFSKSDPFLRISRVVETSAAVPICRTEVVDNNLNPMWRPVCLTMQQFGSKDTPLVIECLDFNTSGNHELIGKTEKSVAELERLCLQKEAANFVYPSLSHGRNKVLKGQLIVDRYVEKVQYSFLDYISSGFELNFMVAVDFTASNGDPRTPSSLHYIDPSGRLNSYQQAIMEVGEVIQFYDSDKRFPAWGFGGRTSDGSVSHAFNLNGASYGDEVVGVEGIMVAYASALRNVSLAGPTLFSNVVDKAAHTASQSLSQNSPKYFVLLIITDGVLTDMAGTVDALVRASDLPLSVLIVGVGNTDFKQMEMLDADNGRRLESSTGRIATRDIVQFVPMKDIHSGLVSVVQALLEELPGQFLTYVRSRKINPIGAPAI

T2: BON2-NLuc (Arabidopsis thaliana) (UniProt Q5S1W2)
T2 sequence: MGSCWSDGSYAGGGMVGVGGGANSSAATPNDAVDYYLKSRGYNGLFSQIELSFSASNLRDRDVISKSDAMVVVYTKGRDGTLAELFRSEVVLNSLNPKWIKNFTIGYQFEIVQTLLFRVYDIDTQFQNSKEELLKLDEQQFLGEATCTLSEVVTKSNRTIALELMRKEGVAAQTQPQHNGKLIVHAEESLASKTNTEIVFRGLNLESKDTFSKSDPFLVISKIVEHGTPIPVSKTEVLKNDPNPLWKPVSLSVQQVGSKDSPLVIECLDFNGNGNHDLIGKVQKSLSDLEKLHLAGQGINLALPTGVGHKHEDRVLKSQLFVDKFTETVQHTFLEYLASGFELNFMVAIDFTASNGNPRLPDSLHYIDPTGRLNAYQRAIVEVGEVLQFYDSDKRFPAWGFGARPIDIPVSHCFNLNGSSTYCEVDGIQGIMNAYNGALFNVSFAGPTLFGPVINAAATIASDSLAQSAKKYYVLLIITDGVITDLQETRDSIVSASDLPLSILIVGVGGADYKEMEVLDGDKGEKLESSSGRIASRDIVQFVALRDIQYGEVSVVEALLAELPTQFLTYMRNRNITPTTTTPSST

T3: BON3-VWA-BD (Arabidopsis thaliana) (UniProt Q5XQC7)
T3 sequence: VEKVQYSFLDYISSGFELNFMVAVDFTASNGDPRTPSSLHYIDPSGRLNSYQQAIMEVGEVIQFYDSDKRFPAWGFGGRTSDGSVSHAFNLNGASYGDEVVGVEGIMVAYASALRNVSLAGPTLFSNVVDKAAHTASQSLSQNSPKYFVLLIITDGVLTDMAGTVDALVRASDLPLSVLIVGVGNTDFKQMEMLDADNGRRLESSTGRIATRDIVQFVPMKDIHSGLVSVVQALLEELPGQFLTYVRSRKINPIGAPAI

T4: BON1-VWA-BD (Arabidopsis thaliana) (UniProt Q941L3)
T4 sequence: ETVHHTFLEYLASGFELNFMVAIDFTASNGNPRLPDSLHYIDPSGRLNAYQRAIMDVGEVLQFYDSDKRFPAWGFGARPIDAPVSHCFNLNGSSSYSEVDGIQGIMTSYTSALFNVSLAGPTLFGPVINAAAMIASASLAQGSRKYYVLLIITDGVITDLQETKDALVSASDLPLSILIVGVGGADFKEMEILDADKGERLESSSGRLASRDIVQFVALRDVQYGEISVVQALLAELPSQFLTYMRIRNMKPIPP

T5: BON2-VWA-BD (Arabidopsis thaliana) (UniProt Q5S1W2)
T5 sequence: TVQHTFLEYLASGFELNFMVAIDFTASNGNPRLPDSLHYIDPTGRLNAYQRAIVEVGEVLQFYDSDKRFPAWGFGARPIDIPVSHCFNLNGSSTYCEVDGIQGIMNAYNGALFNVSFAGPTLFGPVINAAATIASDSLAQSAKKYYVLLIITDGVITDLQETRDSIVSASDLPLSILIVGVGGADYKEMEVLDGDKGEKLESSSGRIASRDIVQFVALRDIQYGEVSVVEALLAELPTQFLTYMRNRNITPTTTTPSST

T6: BON1-NLuc (Arabidopsis thaliana) (UniProt Q941L3)
T6 sequence: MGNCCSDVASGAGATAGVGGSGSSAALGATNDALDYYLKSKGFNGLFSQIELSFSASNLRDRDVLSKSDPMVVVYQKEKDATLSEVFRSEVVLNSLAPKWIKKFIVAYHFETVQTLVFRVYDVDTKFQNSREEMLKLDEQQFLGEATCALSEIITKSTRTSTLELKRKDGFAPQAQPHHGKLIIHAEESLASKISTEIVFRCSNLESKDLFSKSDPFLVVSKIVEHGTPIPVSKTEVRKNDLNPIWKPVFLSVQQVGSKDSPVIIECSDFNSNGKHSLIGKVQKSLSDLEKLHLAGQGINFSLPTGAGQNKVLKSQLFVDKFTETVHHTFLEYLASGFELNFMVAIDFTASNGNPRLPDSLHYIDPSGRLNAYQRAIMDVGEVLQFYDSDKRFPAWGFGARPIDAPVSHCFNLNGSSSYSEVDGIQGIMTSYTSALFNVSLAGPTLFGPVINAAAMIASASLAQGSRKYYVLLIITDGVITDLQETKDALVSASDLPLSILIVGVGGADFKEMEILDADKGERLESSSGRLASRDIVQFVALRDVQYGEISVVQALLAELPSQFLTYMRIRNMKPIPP

T7: BON3-CLuc (Arabidopsis thaliana) (UniProt Q5XQC7)
T7 sequence: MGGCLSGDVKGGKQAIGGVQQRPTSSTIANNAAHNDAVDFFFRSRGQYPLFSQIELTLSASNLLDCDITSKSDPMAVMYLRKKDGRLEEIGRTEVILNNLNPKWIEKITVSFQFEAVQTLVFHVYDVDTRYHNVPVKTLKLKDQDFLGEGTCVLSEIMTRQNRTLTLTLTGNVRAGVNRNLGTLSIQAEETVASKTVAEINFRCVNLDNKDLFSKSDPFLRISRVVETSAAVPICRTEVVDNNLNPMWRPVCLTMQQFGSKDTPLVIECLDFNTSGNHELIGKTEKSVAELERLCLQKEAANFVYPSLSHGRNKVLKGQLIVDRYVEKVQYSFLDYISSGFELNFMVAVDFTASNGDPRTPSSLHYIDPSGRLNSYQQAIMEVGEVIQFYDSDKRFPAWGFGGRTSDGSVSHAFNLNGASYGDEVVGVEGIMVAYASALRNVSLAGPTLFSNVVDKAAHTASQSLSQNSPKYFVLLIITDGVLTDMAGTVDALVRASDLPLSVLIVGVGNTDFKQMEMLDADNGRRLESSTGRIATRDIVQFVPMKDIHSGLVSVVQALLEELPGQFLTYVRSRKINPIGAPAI

T8: BON2-CLuc (Arabidopsis thaliana) (UniProt Q5S1W2)
T8 sequence: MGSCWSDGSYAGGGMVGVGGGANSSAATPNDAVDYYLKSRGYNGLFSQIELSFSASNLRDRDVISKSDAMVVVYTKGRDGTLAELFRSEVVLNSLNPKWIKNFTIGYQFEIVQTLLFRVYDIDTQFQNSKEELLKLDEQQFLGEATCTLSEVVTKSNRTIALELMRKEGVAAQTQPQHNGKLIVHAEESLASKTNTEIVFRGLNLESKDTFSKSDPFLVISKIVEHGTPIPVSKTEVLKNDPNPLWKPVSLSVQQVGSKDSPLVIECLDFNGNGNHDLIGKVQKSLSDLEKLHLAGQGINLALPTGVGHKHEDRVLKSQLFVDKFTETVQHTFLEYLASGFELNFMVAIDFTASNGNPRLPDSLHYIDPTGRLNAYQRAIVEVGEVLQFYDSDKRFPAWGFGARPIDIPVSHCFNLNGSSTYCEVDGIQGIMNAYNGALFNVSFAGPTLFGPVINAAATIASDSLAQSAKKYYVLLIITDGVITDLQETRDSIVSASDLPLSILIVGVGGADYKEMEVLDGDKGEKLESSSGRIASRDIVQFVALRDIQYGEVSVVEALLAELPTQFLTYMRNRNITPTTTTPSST


What was measured:
[1] = molecular target: T1, BON3-NLuc (Arabidopsis thaliana); experiment: split reporter; split-LUC (firefly luciferase halves NLuc and CLuc) co-expressed by Agrobacterium infiltration in Nicotiana benthamiana leaves; 1 mM luciferin, luminescence imaging, 3 min exposure
[2] = molecular target: T2, BON2-NLuc (Arabidopsis thaliana); experiment: as above
[3] = molecular target: T3, BON3-VWA-BD (Arabidopsis thaliana); experiment: two-hybrid; yeast two-hybrid, pGADT7 (AD) and pGBKT7 (BD) constructs co-transformed into AH109; growth on SD-Ade-Trp-Leu-His, photographed after three days
[4] = molecular target: T4, BON1-VWA-BD (Arabidopsis thaliana); experiment: as above
[5] = molecular target: T5, BON2-VWA-BD (Arabidopsis thaliana); experiment: as above
[6] = molecular target: T6, BON1-NLuc (Arabidopsis thaliana); experiment: split reporter; split-LUC (firefly luciferase halves NLuc and CLuc) co-expressed by Agrobacterium infiltration in Nicotiana benthamiana leaves; 1 mM luciferin, luminescence imaging, 3 min exposure
[7] = molecular target: T7, BON3-CLuc (Arabidopsis thaliana); experiment: as above
[8] = molecular target: T8, BON2-CLuc (Arabidopsis thaliana); experiment: as above

Row | binding [3] | binding [4] | binding [5] | Binder | also measured
1 | – | – | – | ACA8-I-CLuc (domain or fragment, UniProt Q9LF79 1-106) MTSLLKSSPGRRRGGDVESGKSEHADSDSDTFYIPSKNASIERLQQWRKAALVLNASRRFRYTLDLKKEQETREMRQKIRSHAHALLAANRFMDMGRESGVEKTTG | binding [1]: binds; binding [2]: binds
2 | binds | binds | binds | ACA8-I-AD (domain or fragment, UniProt Q9LF79 1-106) MTSLLKSSPGRRRGGDVESGKSEHADSDSDTFYIPSKNASIERLQQWRKAALVLNASRRFRYTLDLKKEQETREMRQKIRSHAHALLAANRFMDMGRESGVEKTTG | –
3 | binds | binds | binds | ACA10-I-AD (domain or fragment, UniProt Q9SZR1 1-72) MSGQFNNSPRGEDKDVEAGTSSFTEYEDSPFDIASTKNAPVERLRRWRQAALVLNASRRFRYTLDLKREEDK | –
4 | – | – | – | ACA10-I-CLuc (domain or fragment, UniProt Q9SZR1 1-72) MSGQFNNSPRGEDKDVEAGTSSFTEYEDSPFDIASTKNAPVERLRRWRQAALVLNASRRFRYTLDLKREEDK | binding [1]: binds; binding [2]: binds
5 | binds | binds | binds | segment I of ACA9 in pGADT7 (domain or fragment, UniProt Q9LU41 1-101) MSTSSSNGLLLTSMSGRHDDMEAGSAKTEEHSDHEELQHDPDDPFDIDNTKNASVESLRRWRQAALVLNASRRFRYTLDLNKEEHYDNRRRMIRAHAQVIR | –
6 | – | – | – | ACA9-I-CLuc (domain or fragment, UniProt Q9LU41 1-101) MSTSSSNGLLLTSMSGRHDDMEAGSAKTEEHSDHEELQHDPDDPFDIDNTKNASVESLRRWRQAALVLNASRRFRYTLDLNKEEHYDNRRRMIRAHAQVIR | binding [6]: binds
7 | – | – | – | ACA9-I-NLuc (domain or fragment, UniProt Q9LU41 1-101) MSTSSSNGLLLTSMSGRHDDMEAGSAKTEEHSDHEELQHDPDDPFDIDNTKNASVESLRRWRQAALVLNASRRFRYTLDLNKEEHYDNRRRMIRAHAQVIR | binding [7]: binds; binding [8]: binds

From paper PMC6032332
